Among the data in PubChem BioAssay AID493014 (National Center for Advancing Translational Sciences (NCATS), 2011) are AC50 values, retold here.

Broadly, the AC50 is the concentration at which the activity in the assay is half-maximal.

The nature of this assay: qHTS Assay to Find Inhibitors of Chronic Active B-Cell Receptor Signaling. The following applies: ABC-DLBCL IkBa-CBG/CBR reporter, luminescence ratio (green luciferase fused to IkBa over red control in TMD8 lymphoma cells), 4 h. The procedure, abridged: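 Cell line TMD8 (human ABC DLBCL), stably expressing tet-inducible CBG68-IkBa fusion and CBR; IMDM/0.5% FBS; cpd up to 46 uM; dox induction, 4 h, 37C/5% CO2; dual luminescence; green/red ratio; MG132 control.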
A general note: In qHTS, concentration-response curves come from the screen itself.

Setting [1] is: measured here: CBR red luminescence, cell number.
The mark [2] stands for this setting: measured here: IkBa-CBG green luminescence.

Structures are written as SMILES. Some of the results follow. These are further read-outs of the screen, such as a control signal, another cell line or another target. No call is given for them. Compounds called inactive in the main read-out are mostly missing here. The note in brackets gives the kind of curve behind each potency; many fits are weak.

Consider `Nc1ccc(O)c2c(=O)cc(-c3ccccc3Cl)oc12`, for which, under setting [1], the AC50 is 2.59 µM [rising, partial curve]. `COCc1c(C(=O)N/N=C/c2c[nH]c3ccccc23)nnn1-c1nonc1N`: the AC50 under setting [1] is 14.1 µM [falling, partial curve, poor fit]. Consider `CCOc1cc([N+](=O)[O-])cc(/C=C2/NC(=O)N(Cc3ccccc3F)C2=O)c1O`, for which the half-maximal activity concentration (AC50) under setting [1] was 0.0891 µM [rising, full curve, poor fit].

For the compound `CC(C)(C)OC(=O)N[C@@H](/C=C/c1ccccc1)C(=O)OC(C)(C)C`, under setting [1], the AC50 is 29.1 µM [rising, single point]. Turning to `Cc1ccc(C)c(NC(=S)NCc2ccc3[nH]c4c(c3c2)CCCC4)c1`, the AC50 under setting [1] is 29.1 µM [rising, single point] and the AC50 under setting [2] was 20.6 µM [falling, single point]. Take `COc1ccc(N(CC(=O)Nc2ccc3c(c2)OCCO3)S(=O)(=O)c2cccnc2)cc1`: the AC50 under setting [1] is 20.6 µM [rising, partial curve, poor fit]. Regarding `Cc1cc(C)c(S(=O)(=O)Nc2ccc3c4c(cccc24)CC3)c(C)c1`, the AC50 is 1.41 µM [rising, partial curve, poor fit] under setting [1] and 1.12 µM [falling, partial curve] under setting [2]. As to `Cc1ccc(SCC(=O)NNC(=O)c2ccc(S(C)(=O)=O)cc2)cc1`, the concentration at half-maximal activity (AC50) under setting [1] was 25.1 µM [rising, single point]. As for `COc1cc(-c2n[nH]c(=S)n2-c2ccccc2C(F)(F)F)cc(OC)c1OC`, the AC50 under setting [1] is 35.5 µM [rising, single point]. With `CC1CC(C)CN(S(=O)(=O)c2ccc(NC(=O)c3ccc(=O)[nH]c3)cc2)C1` (centres undefined), the AC50 under setting [1] is 7.31 µM [rising, partial curve] and the AC50 under setting [2] is 16.4 µM [falling, partial curve]. As to `CCn1cc(/C=C/C(=O)Nc2ccc(C)cc2Br)cn1`, under setting [1], the AC50 is 0.92 µM [rising, full curve, poor fit].

For the compound `CCn1nc(C(=O)NNC(=O)C(Cc2ccccc2)NC(N)=O)c2ccccc2c1=O` (centres undefined), the AC50 under setting [1] was 10.3 µM [rising, partial curve]. Same read-out and setting: under `CC(NS(=O)(=O)c1ccc(Br)s1)c1ccccc1` (centres undefined) stands 15.8 µM [falling, partial curve, poor fit]; under `CCN(C(=O)CN1C(=O)NC(CCSC)C1=O)C1CCS(=O)(=O)C1` (centres undefined), 20.6 µM [falling, partial curve, poor fit]. Turning to `CCCC(=O)Nc1ccc(C=C(C(C)=O)C(C)=O)cc1`, the AC50 under setting [1] was 35.5 µM [falling, single point].

As for `Cc1cccc(/C=N/NC(=O)c2ccc3c(c2)OCCO3)c1O`, under setting [1], the AC50 was 20 µM [falling, partial curve, poor fit]. Same read-out and setting: to `O=C1CCCc2nn(-c3ccccc3)c(-c3ccncc3)c21` belongs 6.31 µM [falling, full curve, poor fit]; to `CC(=O)c1c(C)[nH]c(C(=O)Nc2cc(C)cc(C)c2)c1C`, 29.1 µM [rising, partial curve, poor fit]; to `CCc1ccc(/C=C2\SC(=S)N(CCC(=O)NCCCN3CCOCC3)C2=O)cc1`, 7.08 µM [falling, partial curve, poor fit]. In the case of `Cc1ccc2nc(NC(=O)CSc3nc4c(c(=O)n3C)SC(C)C4)sc2c1` (centres undefined), the AC50 under setting [1] was 20 µM [falling, partial curve, poor fit]. The same measure, in the same setting: to `Cc1cc(C)n(CC(C)C(=O)O)n1` (centres undefined) belongs 35.5 µM [rising, single point]. `O=C1CCCC2=C1C(c1ccccc1)C1C(=O)c3ccccc3C1=N2` (centres undefined): the AC50 under setting [2] is 25.9 µM [rising, partial curve, poor fit].

In the case of `CC(=O)c1c(C)oc2c1cc(NS(=O)(=O)c1ccc(Br)cc1)c1ccccc12`, the AC50 by setting is: under setting [1], 3.98 µM [rising, full curve]; under setting [2], 2.82 µM [falling, full curve, poor fit]. For the compound `Cc1ccc(C(=O)Nc2nnc(C)s2)o1`, the AC50 under setting [1] is 6.51 µM [falling, single point]. Consider `CCC1=NN2C(=N)/C(=C\c3cccn3-c3ccc(OC)cc3)C(=O)N=C2S1`, for which the AC50 under setting [1] is 8.91 µM [rising, partial curve, poor fit]. As for `CC(=O)c1nn(-c2ccc(Cl)cc2)c(=O)[nH]c1=O`, the AC50 under setting [1] was 1 µM [rising, full curve, poor fit].

For `Nn1cnnc1N/N=C/c1cc(Br)cc(Br)c1O`, under setting [1], the AC50 is 35.5 µM [falling, single point]. On the same count and under the same terms, under `O=C(Nc1ccccc1Cl)c1ccc(Cl)cc1Cl` stands 6.31 µM [rising, full curve]; under `Cc1ccc(N(CC(=O)NCCSc2ccccn2)S(=O)(=O)c2ccc(F)cc2)cc1`, 35.5 µM [falling, single point]; under `O=C(O)CCSc1nnc(-c2ccc3c(c2)OCO3)o1`, 1.78 µM [falling, full curve]. On the same count and under the same terms, to `Cc1ccc(S(=O)(=O)NCC(c2ccco2)S(=O)(=O)c2ccccc2)cc1` (centres undefined) belongs 0.731 µM [falling, full curve]. In the case of `O=c1oc2ccccc2cc1-c1cn(-c2ccccc2)c(=S)[nH]1`, the AC50 under setting [1] was 0.0326 µM [falling, full curve]. The same measure, in the same setting: to `N#CC1=C2SCC(O)(c3ccccc3)N2C(=O)CC1c1ccccc1F` (centres undefined) belongs 3.26 µM [falling, partial curve, poor fit].

Take `COc1cc(OC)cc(C(=O)Nc2ncc3c(n2)CC(C)(C)CC3=O)c1`: the AC50 under setting [1] is 14.1 µM [falling, partial curve]. With `O=C(c1cccc(Cl)c1)N1CCN(c2ccccn2)CC1`, the AC50 under setting [1] was 5.17 µM [rising, full curve, poor fit]. With `CCn1c(=O)c2c(nc3n2CC(C)CN3CCc2ccccc2)n(C)c1=O` (centres undefined), the AC50 under setting [1] was 6.31 µM [falling, partial curve, poor fit]. The same measure, in the same setting: to `COc1ccc(C(=O)Nc2cccc(C(=O)N3CCN(C)CC3)c2)cc1` belongs 6.51 µM [falling, partial curve]. As to `N=c1oc2ccccc2cc1C(=O)N/N=C/c1ccccc1`, under setting [1], the AC50 is 2 µM [falling, full curve]. On to `COc1ccc(-c2c(-c3ccc(OC)c(C)c3O)n[nH]c2C)cc1`, for which the AC50 under setting [1] is 35.5 µM [falling, single point]. Turning to `CC(=O)Nc1ccc(NC(=O)C(C)OC(=O)c2ccccc2C(=O)c2ccc(Cl)c([N+](=O)[O-])c2)cc1` (centres undefined), the AC50 under setting [1] was 14.6 µM [falling, single point].
